These are yes or no findings as the source states them, for the method shown. Binding seen in cells or lysates may run through a third protein.
Columns and labels:
[1] = substrate: T1, SSI (Oryza sativa subsp. indica cv. IR36 (endogenous in developing seeds)) (UniProt A2Y9M4); assay: co-IP; soluble proteins of developing seeds of WT (IR36) at 10 DAF incubated with isozyme-specific antibodies and protein A magnetic beads; washed with PBS pH 7.4; Western blotting
T1 sequence: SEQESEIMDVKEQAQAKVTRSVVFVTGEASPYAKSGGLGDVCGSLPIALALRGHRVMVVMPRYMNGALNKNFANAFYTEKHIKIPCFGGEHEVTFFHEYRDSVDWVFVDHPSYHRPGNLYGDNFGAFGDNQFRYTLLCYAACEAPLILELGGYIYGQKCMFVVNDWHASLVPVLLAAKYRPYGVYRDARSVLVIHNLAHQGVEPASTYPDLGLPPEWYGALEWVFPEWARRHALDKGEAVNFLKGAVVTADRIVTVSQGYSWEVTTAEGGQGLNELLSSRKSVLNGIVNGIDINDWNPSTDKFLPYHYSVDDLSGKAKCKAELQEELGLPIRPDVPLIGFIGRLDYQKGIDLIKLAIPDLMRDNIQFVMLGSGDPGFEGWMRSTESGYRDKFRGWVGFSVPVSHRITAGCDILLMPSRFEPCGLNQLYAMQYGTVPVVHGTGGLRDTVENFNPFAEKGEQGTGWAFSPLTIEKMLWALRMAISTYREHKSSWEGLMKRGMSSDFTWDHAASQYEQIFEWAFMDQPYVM

[2] = substrate: T1, ; assay: co-IP; soluble proteins of developing seeds of WT (IR36) at 15 DAF incubated with isozyme-specific antibodies and protein A magnetic beads; washed with PBS pH 7.4; Western blotting
[3] = biological target: T2, BEI (Oryza sativa subsp. indica cv. IR36 (endogenous in developing seeds)) (UniProt Q01401); assay: co-IP; soluble proteins of developing seeds of the be2b mutant at 15 DAF incubated with isozyme-specific antibodies and protein A magnetic beads; washed with PBS pH 7.4; Western blotting
T2 sequence: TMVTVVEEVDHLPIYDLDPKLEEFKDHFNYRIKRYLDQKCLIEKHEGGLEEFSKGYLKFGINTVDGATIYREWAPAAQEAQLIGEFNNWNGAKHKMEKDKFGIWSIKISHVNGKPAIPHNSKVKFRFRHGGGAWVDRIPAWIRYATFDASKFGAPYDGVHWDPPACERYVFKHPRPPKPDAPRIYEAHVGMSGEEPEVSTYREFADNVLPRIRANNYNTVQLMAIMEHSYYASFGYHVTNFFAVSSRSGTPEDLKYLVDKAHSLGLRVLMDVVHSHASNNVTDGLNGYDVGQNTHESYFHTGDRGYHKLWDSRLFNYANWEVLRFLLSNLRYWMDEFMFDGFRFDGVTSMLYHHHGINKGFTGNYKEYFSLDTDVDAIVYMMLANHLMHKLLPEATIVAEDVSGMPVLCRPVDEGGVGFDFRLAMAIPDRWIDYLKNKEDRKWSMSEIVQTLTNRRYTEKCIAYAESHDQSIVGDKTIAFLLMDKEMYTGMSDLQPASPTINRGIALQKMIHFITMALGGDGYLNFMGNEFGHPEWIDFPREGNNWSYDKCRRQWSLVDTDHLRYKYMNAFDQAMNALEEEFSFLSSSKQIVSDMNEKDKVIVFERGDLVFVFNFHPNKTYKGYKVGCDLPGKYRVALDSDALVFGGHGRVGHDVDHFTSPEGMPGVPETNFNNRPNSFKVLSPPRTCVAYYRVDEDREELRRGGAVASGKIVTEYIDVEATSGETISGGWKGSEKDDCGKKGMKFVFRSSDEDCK

[4] = biological target: T3, SSIIa (Oryza sativa subsp. indica cv. IR36 (endogenous in developing seeds)) (UniProt P0C586); assay: as above
T3 sequence: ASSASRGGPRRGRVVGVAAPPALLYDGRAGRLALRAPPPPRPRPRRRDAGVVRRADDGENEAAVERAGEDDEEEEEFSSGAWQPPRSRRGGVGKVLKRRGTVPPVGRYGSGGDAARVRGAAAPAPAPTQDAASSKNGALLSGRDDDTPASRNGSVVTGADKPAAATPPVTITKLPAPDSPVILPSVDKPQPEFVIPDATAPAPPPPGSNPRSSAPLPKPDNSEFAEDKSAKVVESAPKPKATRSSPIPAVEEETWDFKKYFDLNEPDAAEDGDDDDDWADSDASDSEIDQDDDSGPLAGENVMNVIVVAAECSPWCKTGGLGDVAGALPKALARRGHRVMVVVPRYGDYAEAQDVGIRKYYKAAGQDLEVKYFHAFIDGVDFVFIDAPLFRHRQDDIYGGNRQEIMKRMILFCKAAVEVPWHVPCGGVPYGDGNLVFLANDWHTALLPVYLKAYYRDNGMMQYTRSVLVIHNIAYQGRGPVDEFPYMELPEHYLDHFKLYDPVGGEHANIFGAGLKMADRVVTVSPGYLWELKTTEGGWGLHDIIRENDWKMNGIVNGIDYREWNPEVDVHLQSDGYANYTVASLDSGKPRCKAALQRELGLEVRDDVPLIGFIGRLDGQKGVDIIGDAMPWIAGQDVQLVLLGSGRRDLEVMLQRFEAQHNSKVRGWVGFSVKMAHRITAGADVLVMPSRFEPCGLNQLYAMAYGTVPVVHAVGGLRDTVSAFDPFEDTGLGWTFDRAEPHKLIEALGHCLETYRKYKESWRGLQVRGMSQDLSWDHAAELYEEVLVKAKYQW

[5] = biological target: SSIIIa (Oryza sativa subsp. indica cv. IR36 (endogenous in developing seeds)); assay: as above
[6] = biological target: T2, BEI (Oryza sativa subsp. indica cv. IR36 (endogenous in developing seeds)); assay: co-IP; soluble proteins of developing seeds of the be2b mutant at 10 DAF incubated with isozyme-specific antibodies and protein A magnetic beads; washed with PBS pH 7.4; Western blotting
[7] = biological target: T3, SSIIa (Oryza sativa subsp. indica cv. IR36 (endogenous in developing seeds)); assay: as above
[8] = biological target: SSIIIa (Oryza sativa subsp. indica cv. IR36 (endogenous in developing seeds)); assay: as above

Measured: binding

B1: ISA1 (enzyme, UniProt D0TZF0 55-803)
chain: SVASAVEVGVGEDEEEGVEEEEEEVEAVVMPERYALGGACRVLAGMPAPLGATALDGGVNFAVYSAGASAASLCLFTPDDLEADEVTEEVPLDPLFNRTGNVWHVFIEGELHNMLYGYRFDGMFAPHCGQYFDVSNVVVDPYAKAVISRGEYGVPGPGGDCWPQMAGMIPLPYSTFDWQGDLPLRYPQKDLVIYEMHLRGFTKHSSSNVEHPGTYIGAISKLDYLKELGVNCVELMPCHEFNELEYFSCSSKMNFWGYSTINFFSPMIRYSSGGIRNCGRDAINEFKTFVREAHKRGIEVIMDVVFNHTAEGNEKGPILSFRGIDNSTYYMLAPKGEFYNYSGCGNTFNCNHPVVREFIVDCLRYWVTEMHVDGFRFDLASIMTRGCSLWDPVNVYGSPVEGDMTTTGTPLATPPLIDMISNDPILGDVKLIAEAWDAGGLYQVGQFPHWKIWSEWNGKYRDIVRQFIKGTDGFAGGFAECLCGSPHLYQAGGRKPWHSINFVCAHDGFTLADLVTYNKKYNSSNGEDNRDGENHNLSWNCGEEGEFAGLSVKRLRKRQMRNFFVSLMVSQGVPMFYMGDEYGHTKGGNNNTYCHDHYVNYFRWDKKEESSDLQRFCSLMTKFRKQCESLGLADFPTAQRLHWHGHQPGKPDWSETSRFVAFSTKDETKGEIYVAFNASHLPAVVGLPERPGYRWEPLVDTGKPAPYDFLTDDLPDRAHAVHLFSHFLNSNLYPMLSYSSIILELQPDD
no binding: all assays above

From PMC9501056
